Results as given in paper PMC7387728.
These are yes or no findings as the source states them, for the method shown. In cells and extracts the contact can be indirect. Some binding calls cover weakened binding; strength is not graded here.

Assays:
[1] = target: PD-L1 (human (endogenous in SGC7901)) (UniProt Q9NZQ7); assay: co-IP; PD-L1 precipitated with antibodies or control IgG from SGC7901 lysates pre-cleared with protein G-agarose beads; immunoprecipitates washed four times in lysis buffer; Western blot with anti-p-EGFR and anti-EGFR; cells treated with TRAIL (100 ng/ml)
[2] = target: PD-L1 (human (endogenous in SGC7901)) (UniProt Q9NZQ7); assay: proximity ligation; Duolink in situ PLA in SGC7901 cells after TRAIL treatment (100 ng/ml); primary antibodies for PD-L1 and p-EGFR; confocal fluorescence microscopy

Row | binding [1] | binding [2] | Substance
1 | binds |  | epidermal growth factor receptor (EGFR) (from UniProt P00533 25-1210)
2 | binds | binds | phosphorylated EGFR (p-EGFR) (from UniProt P00533 25-1210) (receptor)
